Experimental findings from article PMC5007442 are described below.

By UniProt entry, the sequences of proteins in these tests, tags left out.
UniProt P02340: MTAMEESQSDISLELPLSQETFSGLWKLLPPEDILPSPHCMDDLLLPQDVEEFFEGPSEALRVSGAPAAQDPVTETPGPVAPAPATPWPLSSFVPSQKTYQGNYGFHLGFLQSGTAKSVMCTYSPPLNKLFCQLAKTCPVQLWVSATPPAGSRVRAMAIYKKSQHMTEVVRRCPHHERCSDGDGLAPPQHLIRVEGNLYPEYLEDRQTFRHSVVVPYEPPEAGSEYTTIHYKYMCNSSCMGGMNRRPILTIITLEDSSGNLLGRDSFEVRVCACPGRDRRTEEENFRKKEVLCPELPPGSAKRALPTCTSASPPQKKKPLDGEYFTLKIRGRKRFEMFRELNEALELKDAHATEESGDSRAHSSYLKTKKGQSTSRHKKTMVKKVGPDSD

These are yes or no findings as the source states them, for the method shown. Binding seen in cells or lysates may run through a third protein. Some results given as binding are weak or reduced against the parent protein; the word gives no strength.

The target of test [1] is endogenous p53 (mouse primary epidermal keratinocytes) (mouse (endogenous in primary epidermal keratinocytes)) (UniProt P02340). Nature of the test: co-IP; endogenous p53 immunoprecipitated from primary keratinocytes or HCT116 cells treated with CpT for the indicated time points; blot with anti-CYLD.
Test [2] concerns the target p53 expressed in HEK-293 T cells (ubiquitination experiments) (UniProt P04637). Nature of the test: co-IP; p53 immunoprecipitated (anti-p53 1C12) from transfected HEK-293 T cells treated with MG-132/CpT; lysis in IP buffer with 8 M urea, diluted to 1 M urea before the antibody; blot with anti-CYLD.

B1: endogenous CYLD (mouse primary epidermal keratinocytes) (enzyme, UniProt Q80TQ2 1-952)
chain: MSSGLWSQEKVTSPYWEERIFYLLLQECSVTDKQTQKLLKVPKGSIGQYIQDRSVGHSRVPSTKGKKNQIGLKILEQPHAVLFVDEKDVVEINEKFTELLLAITNCEERLSLFRNRLRLSKGLQVDVGSPVKVQLRSGEEKFPGVVRFRGPLLAERTVSGIFFGVELLEEGRGQGFTDGVYQGKQLFQCDEDCGVFVALDKLELIEDDDNGLESDFAGPGDTMQVEPPPLEINSRVSLKVGESTESGTVIFCDVLPGKESLGYFVGVDMDNPIGNWDGRFDGVQLCSFASVESTILLHINDIIPDSVTQERRPPKLAFMSRGVGDKGSSSHNKPKVTGSTSDPGSRNRSELFYTLNGSSVDSQQSKSKNPWYIDEVAEDPAKSLTEMSSDFGHSSPPPQPPSMNSLSSENRFHSLPFSLTKMPNTNGSMAHSPLSLSVQSVMGELNSTPVQESPPLPISSGNAHGLEVGSLAEVKENPPFYGVIRWIGQPPGLSDVLAGLELEDECAGCTDGTFRGTRYFTCALKKALFVKLKSCRPDSRFASLQPVSNQIERCNSLAFGGYLSEVVEENTPPKMEKEGLEIMIGKKKGIQGHYNSCYLDSTLFCLFAFSSALDTVLLRPKEKNDIEYYSETQELLRTEIVNPLRIYGYVCATKIMKLRKILEKVEAASGFTSEEKDPEEFLNILFHDILRVEPLLKIRSAGQKVQDCNFYQIFMEKNEKVGVPTIQQLLEWSFINSNLKFAEAPSCLIIQMPRFGKDFKLFKKIFPSLELNITDLLEDTPRQCRICGGLAMYECRECYDDPDISAGKIKQFCKTCSTQVHLHPRRLNHSYHPVSLPKDLPDWDWRHGCIPCQKMELFAVLCIETSHYVAFVKYGKDDSAWLFFDSMADRDGGQNGFNIPQVTPCPEVGEYLKMSLEDLHSLDSRRIQGCARRLLCDAYMCMYQSPTMSLYK
With B1, in test [1], the binding entry is reported as “binds”.

B2: CYLDR936X (enzyme, UniProt Q9NQC7 1-935)
chain: MSSGLWSQEKVTSPYWEERIFYLLLQECSVTDKQTQKLLKVPKGSIGQYIQDRSVGHSRIPSAKGKKNQIGLKILEQPHAVLFVDEKDVVEINEKFTELLLAITNCEERFSLFKNRNRLSKGLQIDVGCPVKVQLRSGEEKFPGVVRFRGPLLAERTVSGIFFGVELLEEGRGQGFTDGVYQGKQLFQCDEDCGVFVALDKLELIEDDDTALESDYAGPGDTMQVELPPLEINSRVSLKVGETIESGTVIFCDVLPGKESLGYFVGVDMDNPIGNWDGRFDGVQLCSFACVESTILLHINDIIPALSESVTQERRPPKLAFMSRGVGDKGSSSHNKPKATGSTSDPGNRNRSELFYTLNGSSVDSQPQSKSKNTWYIDEVAEDPAKSLTEISTDFDRSSPPLQPPPVNSLTTENRFHSLPFSLTKMPNTNGSIGHSPLSLSAQSVMEELNTAPVQESPPLAMPPGNSHGLEVGSLAEVKENPPFYGVIRWIGQPPGLNEVLAGLELEDECAGCTDGTFRGTRYFTCALKKALFVKLKSCRPDSRFASLQPVSNQIERCNSLAFGGYLSEVVEENTPPKMEKEGLEIMIGKKKGIQGHYNSCYLDSTLFCLFAFSSVLDTVLLRPKEKNDVEYYSETQELLRTEIVNPLRIYGYVCATKIMKLRKILEKVEAASGFTSEEKDPEEFLNILFHHILRVEPLLKIRSAGQKVQDCYFYQIFMEKNEKVGVPTIQQLLEWSFINSNLKFAEAPSCLIIQMPRFGKDFKLFKKIFPSLELNITDLLEDTPRQCRICGGLAMYECRECYDDPDISAGKIKQFCKTCNTQVHLHPKRLNHKYNPVSLPKDLPDWDWRHGCIPCQNMELFAVLCIETSHYVAFVKYGKDDSAWLFFDSMADRDGGQNGFNIPQVTPCPEVGEYLKMSLEDLHSLDSRRIQGCA
On to B2, for which the binding result in test [2] is on record as “binds”.
